Experimental data: PubChem BioAssay AID1259405 (NCATS, 2018)

- Assay: 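Silenced genes that increase secreted GFP made by CHO cells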 (primary screen)
- Cells: Chinese hamster CHO-K1 ovary cells with stable secreted eGFP expression
- Knock-down reagent: single siRNA against mouse genes, 0.8 pmol siRNA per well (2 µl of 400 nM stock)
- Duration: 3 days
- Measurement: 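Percent of the per-plate non-targeting control median for intracellular GFP per well by laser scanning cytometry and for cell viability by ATP luminescence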
- Direction: GFP, % of control: higher = more GFP per well, higher productivity; viability (ATP), % of control: higher = more viable cells (more ATP)
- Rule for the call: 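Called active when intracellular GFP, relative to negative control, is at or above 120%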
Shown is an unselected part of about 50,000 reagents. About 4,000 of them (8%) count as active. 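Mouse siRNA library applied to hamster cells; one well for each siRNA.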 Entries without a mark were called inactive.

Which result is listed for Lrrtm4 (leucine rich repeat transmembrane neuronal 4) [SID363544382]?
GFP, % of control: 52.7; viability (ATP), % of control: 62.7

For Lrrtm4 (leucine rich repeat transmembrane neuronal 4) [SID363550710], what does the deposit list?
GFP, % of control: 59.4; viability (ATP), % of control: 91.6

What is on record for Lrrtm4 (leucine rich repeat transmembrane neuronal 4) [SID363557259]?
GFP, % of control: 92.5; viability (ATP), % of control: 94.8

What did the screen give for BC051019 (cDNA sequence BC051019) [SID363540221]?
GFP, % of control: 51.9; viability (ATP), % of control: 77.2

What is on record for BC051019 (cDNA sequence BC051019) [SID363541973]?
GFP, % of control: 59.2; viability (ATP), % of control: 63.9

For BC051019 (cDNA sequence BC051019) [SID363566889], how do the results read?
GFP, % of control: 87.7; viability (ATP), % of control: 86.7

What is on record for Fcho2 (FCH domain only 2) [SID363553795]?
GFP, % of control: 48.1; viability (ATP), % of control: 58.4

What did the screen give for Fcho2 (FCH domain only 2) [SID363561752]?
GFP, % of control: 83.9; viability (ATP), % of control: 81.5

What did the screen give for Fcho2 (FCH domain only 2) [SID363565490]?
GFP, % of control: 84.8; viability (ATP), % of control: 76.4

How did the screen score Sec23a (SEC23 homolog A, COPII coat complex component) [SID363570350]?
GFP, % of control: 167 (active); viability (ATP), % of control: 68.2

With Sec23a (SEC23 homolog A, COPII coat complex component) [SID363576686], what does the deposit list?
GFP, % of control: 92; viability (ATP), % of control: 83

For Sec23a (SEC23 homolog A, COPII coat complex component) [SID363579854], what was measured?
GFP, % of control: 35.8; viability (ATP), % of control: 45.1

For Lypd3 (Ly6/Plaur domain containing 3) [SID363543425], how do the results read?
GFP, % of control: 75.3; viability (ATP), % of control: 50.9

For Lypd3 (Ly6/Plaur domain containing 3) [SID363552918], what does the deposit list?
GFP, % of control: 29.5; viability (ATP), % of control: 16.6

Which result is listed for Lypd3 (Ly6/Plaur domain containing 3) [SID363558766]?
GFP, % of control: 65.8; viability (ATP), % of control: 60.5

2 entries from above in another layout.
BC051019 (cDNA sequence BC051019) [SID363540221]
- GFP, % of control: 51.9
- viability (ATP), % of control: 77.2

BC051019 (cDNA sequence BC051019) [SID363541973]
- GFP, % of control: 59.2
- viability (ATP), % of control: 63.9

Further records:
What is on record for Btnl2 (butyrophilin-like 2) [SID363540462]?
GFP, % of control: 52.6; viability (ATP), % of control: 64.5

What did the screen give for Btnl2 (butyrophilin-like 2) [SID363542214]?
GFP, % of control: 63.9; viability (ATP), % of control: 76.5

What did the screen give for Btnl2 (butyrophilin-like 2) [SID363567130]?
GFP, % of control: 109; viability (ATP), % of control: 76

What did the screen give for Calm3 (calmodulin 3) [SID363582613]?
GFP, % of control: 89.4; viability (ATP), % of control: 97.4

With Calm3 (calmodulin 3) [SID363584373], what does the deposit list?
GFP, % of control: 86.9; viability (ATP), % of control: 86

With Lrrc66 (leucine rich repeat containing 66) [SID363544247], what was measured?
GFP, % of control: 119; viability (ATP), % of control: 87.8

What did the screen give for Lrrc66 (leucine rich repeat containing 66) [SID363550575]?
GFP, % of control: 69.9; viability (ATP), % of control: 78.6

What did the screen give for Lrrc66 (leucine rich repeat containing 66) [SID363557124]?
GFP, % of control: 62.7; viability (ATP), % of control: 75.5

For Slc17a5 [SID363574679], what does the deposit list?
GFP, % of control: 77.1; viability (ATP), % of control: 102

With Slc17a5 [SID363575735], what was measured?
GFP, % of control: 66.7; viability (ATP), % of control: 90.6

With Slc17a5 [SID363580311], how do the results read?
GFP, % of control: 57.6; viability (ATP), % of control: 66.8

What is on record for Coq4 (coenzyme Q4) [SID363550032]?
GFP, % of control: 66.6; viability (ATP), % of control: 85.6

With Coq4 (coenzyme Q4) [SID363564541], what does the deposit list?
GFP, % of control: 36.5; viability (ATP), % of control: 32.3

With Coq4 (coenzyme Q4) [SID363588086], what was measured?
GFP, % of control: 78.7; viability (ATP), % of control: 87.3
